What was measured:
[1] = general procedure: Fmoc solid-phase peptide synthesis; DHP-HM resin; TBTU/HOBt/DIPEA (solution couplings); conditions: whole synthesis
[2] = general procedure: Fmoc solid-phase peptide synthesis; DHP-HM resin (0.94 mmol/g) for TOC; TCP resin ([…]) for TATE; TBTU/HOBt/DIPEA (solution couplings); conditions: late stage modification step

Substance | crude mass [1] [mg] | crude yield ([1]; scale of the general procedure 1.000 g resin) [%] | step yield [2] [%]
Fmoc-Lys^0-Dphe^1-Cys^2-Tyr^3-DTrp^4-Lys (Dde) 5-Thr^6-Cys^7-Thr-ol^8 | 828 | 83 | 
Lys0(Nε-Boc-His (Boc))-TOC(Dde) |  |  | 86
